Values from PubChem BioAssay AID504784 (Drosophila RNAi Screening Center, 2011)

Assay: 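Fly genes whose silencing alters how much lipid cells keep in droplets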 (primary screen)
System: Drosophila Kc167 embryonic cells
Reagents: long dsRNA against Drosophila genes, about 250 ng dsRNA per well
Time to read-out: 4 days
Treatment: cells fed 400 µM oleic acid bound to BSA
Measurement: 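Microscope images give a droplet-to-nucleus area ratio, taken as log and converted to a screen-wide B-score; higher values mean greater lipid storage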
Direction: droplet/nuclear area B-score: higher = more stored lipid (overstorage)
The screen tested about 17,000 reagents; this is an unselected part of those that have a named target and a result. 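Each column is one replicate's B-score; the combined score over replicates was not deposited, so single values may mislead.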 The numbers tell different reagents against one gene apart. Further read-outs or replicates are left out here.

AsnRS (Asparaginyl-tRNA synthetase) showed droplet/nuclear area B-score, replicate 1 = -0.646.
With knock-down of Sirt7 (Sirtuin 7), the screen gave droplet/nuclear area B-score, replicate 1 = 0.595.
Depletion of hoe1 (hoepel1) #1 gave: droplet/nuclear area B-score, replicate 1 = 0.223.
With knock-down of hoe1 (hoepel1) #2 the results were droplet/nuclear area B-score, replicate 1 = 1.01.
For hoe1 (hoepel1) #3 the deposit lists droplet/nuclear area B-score, replicate 1 = -0.0155.
With knock-down of tobi (target of brain insulin), the record shows droplet/nuclear area B-score, replicate 1 = -0.802.
Zip42C.1 (Zinc/iron regulated transporter-related protein 42C.1) gave droplet/nuclear area B-score, replicate 1 = -0.0414.
Loxl1 (Lysyl oxidase-like 1) scored droplet/nuclear area B-score, replicate 1 = -0.638.
CG9119 showed droplet/nuclear area B-score, replicate 1 = 1.84.
After knock-down of CG1674 the results were droplet/nuclear area B-score, replicate 1 = -0.372.
For CG8813, the values are droplet/nuclear area B-score, replicate 1 = 0.0337.
Silencing of trv (trivet) #1 resulted in: droplet/nuclear area B-score, replicate 1 = 0.055.
Depletion of trv (trivet) #2 came out at: droplet/nuclear area B-score, replicate 1 = 1.44.
With knock-down of trv (trivet) #3, the screen gave droplet/nuclear area B-score, replicate 1 = 0.00556.
For trv (trivet) #4 the deposit lists droplet/nuclear area B-score, replicate 1 = 0.85.
Knock-down of CG11843 gave: droplet/nuclear area B-score, replicate 1 = -0.826.
Against Atg18a (Autophagy-related 18a), the values are droplet/nuclear area B-score, replicate 1 = 0.238.
Knock-down of CG32391 gave: droplet/nuclear area B-score, replicate 1 = 1.49.
After knock-down of CG14131, the record shows droplet/nuclear area B-score, replicate 1 = 0.416.
BHD (Birt-Hogg-Dube) #1 gave droplet/nuclear area B-score, replicate 1 = -0.00326.
Knock-down of BHD (Birt-Hogg-Dube) #2 came out at: droplet/nuclear area B-score, replicate 1 = 1.41.
Depletion of CG9205 gave: droplet/nuclear area B-score, replicate 1 = -0.316.
Against RpL10 (Ribosomal protein L10), the values are droplet/nuclear area B-score, replicate 1 = 7.19.
Silencing of CG14275 gave: droplet/nuclear area B-score, replicate 1 = 0.00215.
Silencing of CG31267 came out at: droplet/nuclear area B-score, replicate 1 = 0.14.
CG3356 scored droplet/nuclear area B-score, replicate 1 = -0.314.
After knock-down of Or98b (Odorant receptor 98b) #1, the screen gave droplet/nuclear area B-score, replicate 1 = 1.27.
Silencing of Or98b (Odorant receptor 98b) #2 resulted in: droplet/nuclear area B-score, replicate 1 = 1.22.
Silencing of cd (cardinal) came out at: droplet/nuclear area B-score, replicate 1 = -0.463.
Depletion of CG15506 resulted in: droplet/nuclear area B-score, replicate 1 = 0.531.
Sp1 gave droplet/nuclear area B-score, replicate 1 = 1.58.
drosha gave droplet/nuclear area B-score, replicate 1 = -2.62.
Depletion of lov (jim lovell) #1 resulted in: droplet/nuclear area B-score, replicate 1 = -0.482.
lov (jim lovell) #2 gave droplet/nuclear area B-score, replicate 1 = 0.916.
With knock-down of NT5E-2 (Ecto-5'-nucleotidase 2), the screen gave droplet/nuclear area B-score, replicate 1 = -0.134.
Silencing of CG7714 came out at: droplet/nuclear area B-score, replicate 1 = 0.00245.
Silencing of sll (slalom) gave: droplet/nuclear area B-score, replicate 1 = -0.227.
Knock-down of Tsp42Er (Tetraspanin 42Er) gave: droplet/nuclear area B-score, replicate 1 = -0.443.
Silencing of AttB (Attacin-B) gave: droplet/nuclear area B-score, replicate 1 = -0.895.
CG3061 scored droplet/nuclear area B-score, replicate 1 = 0.0325.

A run of entries taken from the entries so far, as a working copy:
BHD (Birt-Hogg-Dube) #1 → droplet/nuclear area B-score, replicate 1: -0.00326
BHD (Birt-Hogg-Dube) #2 → droplet/nuclear area B-score, replicate 1: 1.41
CG9205 → droplet/nuclear area B-score, replicate 1: -0.316
RpL10 (Ribosomal protein L10) → droplet/nuclear area B-score, replicate 1: 7.19
CG14275 → droplet/nuclear area B-score, replicate 1: 0.00215
